# From the supplement of paper PMC8728848
# The other results are listed elsewhere or left out.
# B1: Lb MiSSP8 (Laccaria bicolor) (protein)
# chain: MYFHTLFACATLMLITTAHASPTVINSLDSRKADLNGDVEARHAADWRRDSDWRRDSDWRRDSDWRRDSD
# Tests used:
# Assay in all cases: glycan array binding signal (z-score within array); higher = stronger binding
# Settings in all cases: glycan notation: IUPAC condensed, linker removed
# [1] = target: Gal(b1-2)Gal
# Procedure, shortened: (§1)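 Negative Z-scores can be read as non-binding. The Z-score is calculated within each array and then averaged across arrays of one protein sequence at different concentrations or buffers and across linkers. Arrays, 3228 in all, were curated from the Consortium for Functional Glycomics database and kept only where the protein sequence was available.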
# [2] = target: Gal(b1-3)Gal
# Procedure, shortened: as §1
# [3] = target: Gal(b1-3)Gal(b1-4)GlcNAc
# Procedure, shortened: as §1
# [4] = target: Gal(b1-3)GalNAc
# Procedure, shortened: as §1
# [5] = target: Gal(b1-3)GalNAc(a1-3)[Fuc(a1-2)]Gal(b1-4)Glc
# Procedure, shortened: as §1
# [6] = target: Gal(b1-3)GalNAc(a1-3)[Fuc(a1-2)]Gal(b1-4)GlcNAc
# Procedure, shortened: as §1
# [7] = target: Gal(b1-3)GalNAc(b1-3)Gal
# Procedure, shortened: as §1
# [8] = target: Gal(b1-3)GalNAc(b1-3)Gal(a1-4)Gal(b1-4)Glc
# Procedure, shortened: as §1
# [9] = target: Gal(b1-3)GalNAc(b1-4)Gal(b1-4)Glc
# Procedure, shortened: as §1
# [10] = target: Gal(b1-3)GalNAc(b1-4)[Neu5Ac(a2-3)]Gal(b1-4)Glc
# Procedure, shortened: as §1
# [11] = target: Gal(b1-3)GlcNAc
# Procedure, shortened: as §1
# [12] = target: Gal(b1-3)GlcNAc(a1-3)Gal(b1-4)GlcNAc
# Procedure, shortened: as §1
# [13] = target: Gal(b1-3)GlcNAc(a1-6)Gal(b1-4)GlcNAc
# Procedure, shortened: as §1
# [14] = target: Gal(b1-3)GlcNAc(b1-2)Man
# Procedure, shortened: as §1
# [15] = target: Gal(b1-3)GlcNAc(b1-2)Man(a1-3)[Gal(b1-3)GlcNAc(b1-2)Man(a1-6)]Man(b1-4)GlcNAc(b1-4)GlcNAc
# Procedure, shortened: as §1
# [16] = target: Gal(b1-3)GlcNAc(b1-2)Man(a1-3)[Gal(b1-3)GlcNAc(b1-2)Man(a1-6)]Man(b1-4)GlcNAc(b1-4)[Fuc(a1-6)]GlcNAc
# Procedure, shortened: as §1
# [17] = target: Gal(b1-3)GlcNAc(b1-2)Man(a1-3)[GlcNAc(b1-4)][Gal(b1-3)GlcNAc(b1-2)Man(a1-6)]Man(b1-4)GlcNAc(b1-4)GlcNAc
# Procedure, shortened: as §1
# [18] = target: Gal(b1-3)GlcNAc(b1-2)[Gal(b1-3)GlcNAc(b1-6)]Man(a1-6)[Gal(b1-3)GlcNAc(b1-2)Man(a1-3)]Man(b1-4)GlcNAc(b1-4)GlcNAc
# Procedure, shortened: as §1
# [19] = target: Gal(b1-3)GlcNAc(b1-3)Gal(b1-3)GlcNAc
# Procedure, shortened: as §1
# [20] = target: Gal(b1-3)GlcNAc(b1-3)Gal(b1-4)Glc
# Procedure, shortened: as §1
# [21] = target: Gal(b1-3)GlcNAc(b1-3)Gal(b1-4)GlcNAc
# Procedure, shortened: as §1
# [22] = target: Gal(b1-3)GlcNAc(b1-3)Gal(b1-4)GlcNAc(b1-2)Man(a1-3)[Gal(b1-3)GlcNAc(b1-3)Gal(b1-4)GlcNAc(b1-2)Man(a1-6)]Man(b1-4)GlcNAc(b1-4)GlcNAc
# Procedure, shortened: as §1
# [23] = target: Gal(b1-3)GlcNAc(b1-3)Gal(b1-4)GlcNAc(b1-2)[Gal(b1-3)GlcNAc(b1-3)Gal(b1-4)GlcNAc(b1-6)]Man(a1-6)[Gal(b1-3)GlcNAc(b1-3)Gal(b1-4)GlcNAc(b1-2)Man(a1-3)]Man(b1-4)GlcNAc(b1-4)[Fuc(a1-6)]GlcNAc
# Procedure, shortened: as §1
# [24] = target: Gal(b1-3)GlcNAc(b1-3)Gal(b1-4)GlcNAc(b1-3)Gal(b1-4)GlcNAc(b1-2)[Gal(b1-3)GlcNAc(b1-3)Gal(b1-4)GlcNAc(b1-3)Gal(b1-4)GlcNAc(b1-6)]Man(a1-6)[Gal(b1-3)GlcNAc(b1-3)Gal(b1-4)GlcNAc(b1-3)Gal(b1-4)GlcNAc(b1-2)Man(a1-3)]Man(b1-4)GlcNAc(b1-4)[Fuc(a1-6)]GlcNAc
# Procedure, shortened: as §1
# [25] = target: Gal(b1-3)GlcNAc(b1-3)Gal(b1-4)GlcNAc(b1-6)[Gal(b1-3)GlcNAc(b1-3)]Gal(b1-4)Glc
# Procedure, shortened: as §1
# [26] = target: Gal(b1-3)GlcNAc(b1-3)Gal(b1-4)[Fuc(a1-3)]GlcNAc
# Procedure, shortened: as §1
# [27] = target: Gal(b1-3)GlcNAc(b1-3)Gal(b1-4)[Fuc(a1-3)]GlcNAc(b1-6)[Gal(b1-3)GlcNAc(b1-3)]Gal(b1-4)Glc
# Procedure, shortened: as §1
# [28] = target: Gal(b1-3)GlcNAc(b1-3)GalNAc
# Procedure, shortened: as §1
# [29] = target: Gal(b1-3)GlcNAc(b1-6)Gal(b1-4)GlcNAc
# Procedure, shortened: as §1
# [30] = target: Gal(b1-3)GlcNAc(b1-6)GalNAc
# Procedure, shortened: as §1
# [31] = target: Gal(b1-3)GlcNAc(b1-6)[Gal(b1-3)]GalNAc
# Procedure, shortened: as §1
# [32] = target: Gal(b1-3)GlcNAc6S
# Procedure, shortened: as §1
# [33] = target: Gal(b1-3)[Fuc(a1-4)]GlcNAc
# Procedure, shortened: as §1
# [34] = target: Gal(b1-3)[Fuc(a1-4)]GlcNAc(b1-2)Man
# Procedure, shortened: as §1
# [35] = target: Gal(b1-3)[Fuc(a1-4)]GlcNAc(b1-2)Man(a1-3)[Gal(b1-3)[Fuc(a1-4)]GlcNAc(b1-2)Man(a1-6)]Man(b1-4)GlcNAc(b1-4)[Fuc(a1-6)]GlcNAc
# Procedure, shortened: as §1
# [36] = target: Gal(b1-3)[Fuc(a1-4)]GlcNAc(b1-3)Gal(b1-3)[Fuc(a1-4)]GlcNAc
# Procedure, shortened: as §1
# [37] = target: Gal(b1-3)[Fuc(a1-4)]GlcNAc(b1-3)Gal(b1-4)[Fuc(a1-3)]GlcNAc
# Procedure, shortened: as §1
# [38] = target: Gal(b1-3)[Fuc(a1-4)]GlcNAc(b1-6)GalNAc
# Procedure, shortened: as §1
# [39] = target: Gal(b1-3)[GlcNAc(b1-6)]GalNAc
# Procedure, shortened: as §1
# [40] = target: Gal(b1-3)[Neu5Ac(a2-6)]GalNAc
# Procedure, shortened: as §1
# [41] = target: Gal(b1-3)[Neu5Ac(a2-6)]GlcNAc(b1-4)Gal(b1-4)Glc
# Procedure, shortened: as §1
# [42] = target: Gal(b1-3)[Neu5Ac(b2-6)]GalNAc
# Procedure, shortened: as §1
# [43] = target: Gal(b1-4)Gal
# Procedure, shortened: as §1
# [44] = target: Gal(b1-4)GalNAc(a1-3)[Fuc(a1-2)]Gal(b1-4)GlcNAc
# Procedure, shortened: as §1
# [45] = target: Gal(b1-4)GalNAc(b1-3)[Fuc(a1-2)]Gal(b1-4)GlcNAc
# Procedure, shortened: as §1
binder,measurement,setting,value
B1,glycan array binding signal (z-score),[1],-0.267
same,glycan array binding signal (z-score),[2],0.043
same,glycan array binding signal (z-score),[3],-0.447
same,glycan array binding signal (z-score),[4],0.123
same,glycan array binding signal (z-score),[5],-0.447
same,glycan array binding signal (z-score),[6],-0.267
same,glycan array binding signal (z-score),[7],1.8
same,glycan array binding signal (z-score),[8],0.595
same,glycan array binding signal (z-score),[9],0.878
same,glycan array binding signal (z-score),[10],-0.095
same,glycan array binding signal (z-score),[11],-0.171
same,glycan array binding signal (z-score),[12],-0.682
same,glycan array binding signal (z-score),[13],-0.136
same,glycan array binding signal (z-score),[14],0.727
same,glycan array binding signal (z-score),[15],-0.295
same,glycan array binding signal (z-score),[16],0.326
same,glycan array binding signal (z-score),[17],1.29
same,glycan array binding signal (z-score),[18],0.54
same,glycan array binding signal (z-score),[19],-0.778
same,glycan array binding signal (z-score),[20],-0.26
same,glycan array binding signal (z-score),[21],-0.654
same,glycan array binding signal (z-score),[22],-0.523
same,glycan array binding signal (z-score),[23],0.54
same,glycan array binding signal (z-score),[24],0.982
same,glycan array binding signal (z-score),[25],-0.088
same,glycan array binding signal (z-score),[26],-0.682
same,glycan array binding signal (z-score),[27],-0.53
same,glycan array binding signal (z-score),[28],-0.958
same,glycan array binding signal (z-score),[29],-0.136
same,glycan array binding signal (z-score),[30],-0.619
same,glycan array binding signal (z-score),[31],-0.454
same,glycan array binding signal (z-score),[32],-0.468
same,glycan array binding signal (z-score),[33],-0.195
same,glycan array binding signal (z-score),[34],0.471
same,glycan array binding signal (z-score),[35],2.19
same,glycan array binding signal (z-score),[36],-0.419
same,glycan array binding signal (z-score),[37],-0.309
same,glycan array binding signal (z-score),[38],-0.543
same,glycan array binding signal (z-score),[39],-0.447
same,glycan array binding signal (z-score),[40],0.447
same,glycan array binding signal (z-score),[41],-0.716
same,glycan array binding signal (z-score),[42],-0.799
same,glycan array binding signal (z-score),[43],-3.19
same,glycan array binding signal (z-score),[44],-0.73
same,glycan array binding signal (z-score),[45],-0.916

# Looked up one by one from the list above, 2 records:
binder,measurement,setting,value
B1,glycan array binding signal (z-score),[29],-0.136
same,glycan array binding signal (z-score),[4],0.123
